PubChem BioAssay AID652272 – Drosophila RNAi Screening Center, 2013
Assay: 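Genes whose knock-down decreases or increases Hedgehog reporter output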 (primary screen). Cells: Drosophila clone 8 (Cl8) cells. Knock-down reagent: long dsRNA against Drosophila genes. Detection: 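Firefly light from a Hedgehog-responsive ptc promoter reporter and Renilla reference light, both read on a plate reader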. Reading the numbers: firefly Hh reporter signal: higher = more ptc reporter light; Renilla reference signal: higher = more Renilla control light. Call rule: 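Hit when the z-score averaged over two replicates is under -2 or over +3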. Calls: active = hit: reporter lowered or raised; inactive = not a hit.
The deposit covers about 21,000 reagents; this is a random part of those that have a named target and a result. Over the whole deposit, 503 (2.4%) were called active. 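Raw plate light values, not normalised; calls rest on replicate z-scores that were not deposited; hits include reporter decreases as well as increases.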 A plus sign joins genes that one reagent is predicted to hit. Not given: the amount of reagent, the time to read-out.

predicted target,DRSC id,"firefly Hh reporter signal, replicate 1","firefly Hh reporter signal, replicate 2","firefly Hh reporter signal, replicate 3","Renilla reference signal, replicate 1","Renilla reference signal, replicate 2",call
Drgx,DRSC00278,1.32e5,62924,,3163,5674,inactive
Drgx,DRSC00537,1.48e5,62893,,3772,5952,inactive
Vps16A,DRSC16422,66765,1.14e5,,2139,2976,inactive
Clamp,DRSC03718,1.53e5,1.10e5,,6146,4727,inactive
Zip71B,DRSC09686,80253,,,1280,2080,inactive
Ppm1,DRSC08260,52032,42058,,2198,3201,inactive
Myo10A,DRSC19758,29484,1.02e5,,1274,4674,inactive
Myo10A,DRSC19834,69920,2.00e5,,1344,8233,inactive
Myo10A,DRSC19837,72144,1.83e5,,1485,6198,inactive
CG17122,DRSC10245,1.08e5,1.47e5,,4150,4244,inactive
Cp18,DRSC11120,60480,67360,,5714,4955,inactive
CG3568,DRSC18312,80951,2.25e5,,3320,7873,inactive
Obp47a,DRSC06255,96194,50961,,1994,1088,inactive
CG14324,DRSC14803,80424,83796,,2928,349,inactive
CG31693,DRSC03674,1.03e5,1.57e5,,3268,7008,inactive
Smyd4-1,DRSC06785,66497,41991,,3264,1968,inactive
CG13376,DRSC17901,1.43e5,3.33e5,,3970,12392,inactive
Usp5,DRSC08244,90800,56442,,3191,4261,inactive
aop,DRSC00801,51480,35219,,1418,971,inactive
RNaseZ,DRSC06845,86829,72920,,2298,5153,inactive
csw,DRSC18756,1.15e5,2.03e5,,4546,7959,inactive
Elovl7,DRSC15452,76278,85328,,2856,4073,inactive
ImpL1,DRSC11197,89590,36048,,4132,1270,inactive
eIF3d1,DRSC16938,3.64e5,73075,,18352,1987,inactive
CG34384,DRSC12642,5.29e5,2.18e5,90416,4504,4832,inactive
CG34384,DRSC12644,2.70e5,,,5205,,inactive
CG34384,DRSC14855,52497,97095,,2225,2785,inactive
CG34384,DRSC15444,94875,1.30e5,,3146,4226,inactive
CG34384,DRSC16575,80885,1.27e5,,3008,3612,inactive
byn,DRSC11332,49721,64081,1.05e5,6146,7634,inactive
spn-A,DRSC16812,88010,67940,,3393,1962,inactive
Mgat4b,DRSC10256,71572,,,3121,1907,inactive
TFAM,DRSC15552,93024,74944,,3501,2578,inactive
CG18179,DRSC10303,34710,43965,47801,3572,3035,inactive
ccb,DRSC20501,72082,2.26e5,,2176,8867,inactive
CG14609,DRSC12553,60373,79114,,2597,2594,inactive
CG12769,DRSC06167,1.49e5,1.16e5,,5476,4539,inactive
TotM,DRSC02355,85787,47136,,2853,5058,inactive
beta3GalTII,DRSC07253,78816,49664,,1530,3936,inactive
RpS9,DRSC11273,44933,26981,,3581,2672,active
CG3795,DRSC18593,1.40e5,80819,,3421,2593,inactive
CG32147,DRSC09346,2.47e5,,,5492,,inactive
Osi13,DRSC12281,81024,85938,,3125,2465,inactive
CG13998,DRSC02330,1.14e5,46016,,3021,4548,inactive
CG31730,DRSC01308,5.20e5,2.29e5,,26497,8605,inactive
moi + Tgs1,DRSC16371,4.93e5,81072,,26633,1905,inactive
Ndae1,DRSC00975,4.49e5,1.81e5,,21344,7603,inactive
Ndae1,DRSC02770,76471,57444,,3888,2227,inactive
CG31140,DRSC13649,55952,3.25e5,,13733,6548,inactive
CG31140,DRSC14603,1.04e5,90931,,4109,3744,inactive
CG31140,DRSC15904,6.53e5,1.09e5,,33045,3435,inactive
salm,DRSC03606,1.07e5,82311,,2824,7690,inactive
CG17359,DRSC10265,1.08e5,,,3761,2946,inactive
CG8861,DRSC12731,3.48e5,,,6901,,inactive
CG8861,DRSC16449,89792,1.29e5,,2582,3357,inactive
CG13135,DRSC02232,1.14e5,40627,,3169,4752,inactive
CG1785,DRSC18139,79223,74605,,2326,2544,inactive

No new results follow: entries from further up.
predicted target,DRSC id,"firefly Hh reporter signal, replicate 1","firefly Hh reporter signal, replicate 2","firefly Hh reporter signal, replicate 3","Renilla reference signal, replicate 1","Renilla reference signal, replicate 2",call
Cp18,DRSC11120,60480,67360,,5714,4955,inactive
CG3568,DRSC18312,80951,2.25e5,,3320,7873,inactive
Obp47a,DRSC06255,96194,50961,,1994,1088,inactive
CG14324,DRSC14803,80424,83796,,2928,349,inactive
CG31693,DRSC03674,1.03e5,1.57e5,,3268,7008,inactive
Smyd4-1,DRSC06785,66497,41991,,3264,1968,inactive
